Experimental data published in paper PMC12325761.
These are yes or no findings as the source states them, for the method shown. Binding seen in cells or lysates may run through a third protein. Some binding calls cover weakened binding; strength is not graded here.

Sequences of proteins named here, by UniProt entry; tags and fusion partners are left off.
UniProt P46937: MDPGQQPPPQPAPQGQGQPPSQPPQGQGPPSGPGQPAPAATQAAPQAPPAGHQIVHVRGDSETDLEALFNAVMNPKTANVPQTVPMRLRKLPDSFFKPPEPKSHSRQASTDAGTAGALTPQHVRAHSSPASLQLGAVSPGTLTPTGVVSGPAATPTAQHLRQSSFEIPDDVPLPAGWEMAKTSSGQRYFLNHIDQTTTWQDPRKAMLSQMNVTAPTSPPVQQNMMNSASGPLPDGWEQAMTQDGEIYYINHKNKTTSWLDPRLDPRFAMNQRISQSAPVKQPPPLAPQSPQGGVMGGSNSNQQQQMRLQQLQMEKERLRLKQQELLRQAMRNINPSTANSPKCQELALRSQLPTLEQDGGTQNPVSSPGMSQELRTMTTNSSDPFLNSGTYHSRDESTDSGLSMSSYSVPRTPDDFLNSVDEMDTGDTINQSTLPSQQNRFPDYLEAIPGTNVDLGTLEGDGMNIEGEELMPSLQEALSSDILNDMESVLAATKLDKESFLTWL
UniProt Q13523: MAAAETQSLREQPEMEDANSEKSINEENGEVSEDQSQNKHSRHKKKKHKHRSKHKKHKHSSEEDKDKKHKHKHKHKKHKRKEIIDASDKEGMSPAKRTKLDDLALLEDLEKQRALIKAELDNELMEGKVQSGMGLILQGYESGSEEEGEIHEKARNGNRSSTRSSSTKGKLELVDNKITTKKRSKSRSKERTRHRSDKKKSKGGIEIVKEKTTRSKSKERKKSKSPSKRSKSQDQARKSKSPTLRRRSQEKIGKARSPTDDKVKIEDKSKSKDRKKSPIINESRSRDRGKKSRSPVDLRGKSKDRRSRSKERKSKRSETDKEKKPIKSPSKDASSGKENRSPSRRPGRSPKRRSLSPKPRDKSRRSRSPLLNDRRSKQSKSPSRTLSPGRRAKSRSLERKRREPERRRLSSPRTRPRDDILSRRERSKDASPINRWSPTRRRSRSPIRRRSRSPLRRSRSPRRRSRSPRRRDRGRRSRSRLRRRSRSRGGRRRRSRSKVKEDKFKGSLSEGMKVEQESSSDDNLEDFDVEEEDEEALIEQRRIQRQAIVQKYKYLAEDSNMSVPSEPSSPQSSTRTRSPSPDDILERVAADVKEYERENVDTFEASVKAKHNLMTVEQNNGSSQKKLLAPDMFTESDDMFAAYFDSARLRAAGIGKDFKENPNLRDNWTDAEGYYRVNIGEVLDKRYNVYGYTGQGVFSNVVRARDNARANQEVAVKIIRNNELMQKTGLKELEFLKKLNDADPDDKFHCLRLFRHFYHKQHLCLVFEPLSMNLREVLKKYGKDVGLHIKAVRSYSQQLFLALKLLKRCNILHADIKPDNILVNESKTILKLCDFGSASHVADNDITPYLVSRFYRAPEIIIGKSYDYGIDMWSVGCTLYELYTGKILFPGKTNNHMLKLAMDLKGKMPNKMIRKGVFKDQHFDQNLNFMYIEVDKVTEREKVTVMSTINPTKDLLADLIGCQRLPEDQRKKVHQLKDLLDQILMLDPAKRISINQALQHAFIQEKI

How the values were obtained:
[1] = target: ectopic YAP of the co-IP of Fig. 4e (UniProt P46937); assay: condition: only in cells with GNAQ R183Q, Q209P or Q209L, or GNA11 Q209L; co-IP; Fig. 4e, f upper: ectopic YAP with endogenous PRP4K in cells with GNAQ R183Q, Q209P or Q209L or GNA11 Q209L
[2] = target: ectopic YAP of the co-IP of Fig. 4e (UniProt P46937); assay: co-IP; Fig. 4e, f upper: ectopic YAP with endogenous PRP4K; also with knock-down of endogenous GNAQ wt and GNA11 wt (interaction attenuated)
[3] = target: PRP4K as precipitated in the co-IP of Fig. 4b (human) (UniProt Q13523); assay: co-IP; Fig. 4b: PRP4K precipitated; endogenous YAP and ectopic ORF blotted

Row | binding [1] | binding [2] | binding [3] | Substance
1 | no binding | binds | – | endogenous PRP4K (from UniProt Q13523 1-1007) (enzyme)
2 | – | – | binds | endogenous YAP (from UniProt P46937 1-504)
